To fix the notation:
B1: 066-4.26.14H2L2 (antibody, V domains shown)
VH: EVQLVESGGGLVKPGGSLRLSCAASGFTFRSYAMSWVRQTPEKRLEWVASISTTSNTYYPDSVKGRFTTSRDNAKNSVYLQMSSLRAEDTAVYYCGRGVITNQAWFAYWGQGTTVTVSS
VL: DIVLTQSPATLSVSPGERATLSCRASQSISNNLHWYQQKPGQAPRLLIKYASQSISGIPARFSGSGSGTDFTLTISSLQSEDFAVYFCQQSNSWPLTFGGGTKVEIK
B2: 066-4.26.14H5L3 (antibody, V domains shown)
VH: EVQLVESGGGLVQPGGSLRLSCVASGFTFRSYAMSWVRQAPGKGLEWVASISTTSNTYYPDSVKGRFTTSRDNSKNTVYLQMSSLRAEDTAVYYCGRGVITNQAWFAYWGQGTLVTVSS
VL: DIVLTQSPDFQSVTPKEKVTISCRASQSISNNLHWYQQKPDQSPKLLIKYASQSISGIPSRFSGSGSGTDFTLTINSLEAEDAAAYFCQQSNSWPLTFGPGTKVEIK
B3: 066-4.26.14H2L3 (antibody, V domains shown)
VH: EVQLVESGGGLVKPGGSLRLSCAASGFTFRSYAMSWVRQTPEKRLEWVASISTTSNTYYPDSVKGRFTTSRDNAKNSVYLQMSSLRAEDTAVYYCGRGVITNQAWFAYWGQGTTVTVSS
VL: DIVLTQSPDFQSVTPKEKVTISCRASQSISNNLHWYQQKPDQSPKLLIKYASQSISGIPSRFSGSGSGTDFTLTINSLEAEDAAAYFCQQSNSWPLTFGPGTKVEIK
B4: 066-4.26.14H4L2 (antibody, V domains shown)
VH: EVQLVESGGGLVQPGGSLRLSCAASGFTFRSYAMSWVRQAPGKGLEWVASISTTSNTYYPDSVKGRFTTSRDNAKNSVYLQMSSLRDEDTAMYYCGRGVITNQAWFAYWGQGILVTVSS
VL: DIVLTQSPATLSVSPGERATLSCRASQSISNNLHWYQQKPGQAPRLLIKYASQSISGIPARFSGSGSGTDFTLTISSLQSEDFAVYFCQQSNSWPLTFGGGTKVEIK
B5: 066-4.26.14H5L2 (antibody, V domains shown)
VH: EVQLVESGGGLVQPGGSLRLSCVASGFTFRSYAMSWVRQAPGKGLEWVASISTTSNTYYPDSVKGRFTTSRDNSKNTVYLQMSSLRAEDTAVYYCGRGVITNQAWFAYWGQGTLVTVSS
VL: DIVLTQSPATLSVSPGERATLSCRASQSISNNLHWYQQKPGQAPRLLIKYASQSISGIPARFSGSGSGTDFTLTISSLQSEDFAVYFCQQSNSWPLTFGGGTKVEIK
B6: 066-4.26.14H5L1 (antibody, V domains shown)
VH: EVQLVESGGGLVQPGGSLRLSCVASGFTFRSYAMSWVRQAPGKGLEWVASISTTSNTYYPDSVKGRFTTSRDNSKNTVYLQMSSLRAEDTAVYYCGRGVITNQAWFAYWGQGTLVTVSS
VL: DIVLTQSPATLSVSPGERVTLSCRASQSISNNLHWYQQKSGQAPRLLIKYASQSISGIPSRFSGSGSGTDFTLTISSLQSEDFAVYFCQQSNSWPLTFGGGTQVEIK

Results are given in words; binding and its absence hold for the method and conditions named. Some results given as binding are weak or reduced against the parent protein; the word gives no strength.

This assay addresses Aβ1-42 monomer (human). Put plainly: ELISA on human Aβ42 monomer.
Turning to B1, the binding result is “binds”.

With B2, the binding result is “binds”.

As to B3, the binding entry is given as “binds”.

In the case of B4, the binding result is on record as “binds”.

Take B5: the binding result is reported as “binds”.

On to B6, for which the binding entry is listed as “binds”.
